Measured values taken from patent publication US20100015130A1.
These are yes or no findings as the source states them, for the method shown. In cells and extracts the contact can be indirect. Some entries that bind do so weakly or less than the wild type.

Amino acid sequences for entries named in this document (tags omitted).
UniProt Q9WV60: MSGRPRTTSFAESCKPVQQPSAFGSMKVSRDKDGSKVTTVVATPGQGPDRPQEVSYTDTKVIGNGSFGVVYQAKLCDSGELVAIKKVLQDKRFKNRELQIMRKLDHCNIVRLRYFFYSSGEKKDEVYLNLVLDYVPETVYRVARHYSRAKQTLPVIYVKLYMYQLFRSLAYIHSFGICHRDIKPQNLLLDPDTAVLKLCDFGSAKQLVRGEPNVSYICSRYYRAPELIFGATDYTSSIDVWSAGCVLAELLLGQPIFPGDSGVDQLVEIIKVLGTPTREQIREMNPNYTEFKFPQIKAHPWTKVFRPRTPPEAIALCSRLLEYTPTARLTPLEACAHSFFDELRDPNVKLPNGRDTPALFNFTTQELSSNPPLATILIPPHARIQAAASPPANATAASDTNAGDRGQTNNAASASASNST

Key:
[1] = molecular target: endogenous GSK3β in mouse embryonic brain lysate (mouse) (UniProt Q9WV60); experiment: co-immunoprecipitation with anti-DISC1, immunoblot with anti-GSK3β, FIG. 4e
[2] = molecular target: endogenous GSK3β in mouse embryonic brain lysate (mouse) (UniProt Q9WV60); experiment: co-immunoprecipitation from embryonic brain lysate

- binding [1]: binds
- binding [2]: binds
B1: mouse DISC1 (Disrupted In Schizophrenia 1), endogenous in mouse embryonic brain lysate (protein, UniProt Q811T9 1-852, looked up)
chain: MQGGGPRGAPIHSPSHGADSGHGLPPAVAPQRRRLTRRPGYMRSTAGSGIGFLSPAVGMPHPSSAGLTGQQSQHSQSKAGQCGLDPGSHCQASLVGKPFLKSSLVPAVASEGHLHPAQRSMRKRPVHFAVHSKNDSRQSERLTGSFKPGDSGFWQELLSSDSFKSLAPSLDAPWNKGSRGLKTVKPLASPALNGPADIASLPGFQDTFTSSFSFIQLSLGAAGERGEAEGCLPSREAEPLHQRPQEMAAEASSSDRPHGDPRHLWTFSLHAAPGLADLAQVTRSSSRQSECGTVSSSSSDTGFSSQDASSAGGRGDQGGGWADAHGWHTLLREWEPMLQDYLLSNRRQLEVTSLILKLQKCQEKVVEDGDYDTAETLRQRLEELEQEKGRLSWALPSQQPALRSFLGYLAAQIQVALHGATQRAGSDDPEAPLEGQLRTTAQDSLPASITRRDWLIREKQRLQKEIEALQARMSALEAKEKRLSQELEEQEVLLRWPGCDLMALVAQMSPGQLQEVSKALGETLTSANQAPFQVEPPETLRSLRERTKSLNLAVRELTAQVCSGEKLCSSLRRRLSDLDTRLPALLEAKMLALSGSCFSTAKELTEEIWALSSEREGLEMFLGRLLALSSRNSRRLGIVKEDHLRCRQDLALQDAAHKTRMKANTVKCMEVLEGQLSSCRCPLLGRVWKADLETCQLLMQSLQLQEAGSSPHAEDEEQVHSTGEAAQTAALAVPRTPHPEEEKSPLQVLQEWDTHSALSPHCAAGPWKEDSHIVSAEVGEKCEAIGVKLLHLEDQLLGAMYSHDEALFQSLQGELQTVKETLQAMILQLQPTKEAGEASASYPTAGAQETEA
